{
  "source": "patent US6288028A",
  "about": "“BPC peptide salts with organo-protective activity, the process for their preparation and their use in therapy” (priority 1997, dated 2001)",
  "key": {"[1]": {"assay": "Stability tests of BPC peptide salts (HPLC)", "format": "physicochemical", "conditions": "40° C., 0.2% (w/v) aqueous solution; for assay (HPLC), 120 Days: day 120; for assay (HPLC), 0 Days: day 0"}, "[2]": {"test_system": "hemorrhagic shock", "assay": "Experimental hemorrhagic shock", "format": "in vivo, rats"}, "[3]": {"test_system": "peripheral blood T cells", "assay": "Cellular immune responses of peripheral blood lymphocytes, stimulation index", "format": "cell-based, patients"}},
  "note": "Where “and” joins values, the source holds several entries; their conditions need not be identical. Equal values may be shown once. Read-outs that look alike come from different tables or passages of the source. At least one peptide structure holds a part that was inferred or is arguable (an end, a ring closure or a residue). Where a SMILES comes first, the peptide text is derived from it. Where no end group is shown, it is not given here.",
  "data": [
    {"compound": "GEPPPGKPADDAGLV [TRIS-BPC157, TRIS Salt of BPC157]", "values": [
      {"measurement": "assay (HPLC), 120 Days", "setting": "[1]; listed as TRIS salt of BPC157", "result": 99.4, "unit": "area %"}
    ]},
    {"compound": "GEPPPGKPADDAGLV [CaBPC157]", "values": [
      {"measurement": "blood volume loss sustained before the death", "setting": "[2]; 10 μg or 10 ng/kg b.w. i.p. 15 minutes before bleeding, dose-dependent", "result": "significantly higher blood volume loss sustained before the death"},
      {"measurement": "blood pressure in hypovolemic and hypotensive animals", "setting": "[2]; i.v. after 5 minutes of stable low blood pressure", "result": "prompt and long-lasting significant blood pressure increase without death"}
    ]},
    {"compound": "CC(C)C[C@H](NC(=O)CNC(=O)[C@H](C)NC(=O)[C@H](CC(=O)O)NC(=O)[C@H](CC(=O)O)NC(=O)[C@H](C)NC(=O)[C@@H]1CCCN1C(=O)[C@H](CCCCN)NC(=O)CNC(=O)[C@@H]1CCCN1C(=O)[C@@H]1CCCN1C(=O)[C@@H]1CCCN1C(=O)[C@H](CCC(=O)O)NC(=O)CN)C(=O)N[C@H](C(=O)O)C(C)C", "note": "[free peptide BPC157] (H-GEPPPGKPADDAGLV-OH)", "values": [
      {"measurement": "assay (HPLC), 0 Days", "setting": "[1]", "result": 99.3, "unit": "area %"},
      {"measurement": "assay (HPLC), 120 Days", "setting": "[1]", "result": 97.4, "unit": "area %"},
      {"measurement": "S[…]", "setting": "[3]", "result": 2.70},
      {"measurement": "S[…]", "setting": "[3]; MULTIPLE SCLEROSIS, F", "result": 13.80},
      {"measurement": "S[…]", "setting": "[3]; OPTIC NEURITIS, F", "result": 9.53},
      {"measurement": "S[…]", "setting": "[3]; OPTIC NEURITIS, M", "result": 3.54},
      {"measurement": "S[…]", "setting": "[3]; PEPTIC ULCER, F, 20 ug /l antigen, 7 day cell cultures", "result": 26.82},
      {"measurement": "S[…]", "setting": "[3]; SERONEGATIVE SPONDYLOARTHROPAPATHY, F", "result": 4.99},
      {"measurement": "S[…]", "setting": "[3]; SUBACUTE SCLEROSANS […], F", "result": 2.54},
      {"measurement": "S[…]", "setting": "[3]; UVEITIS, F (three patients), listed as BPC157 pentadecapeptide", "result": "16.87 and 22.30"},
      {"measurement": "S[…]", "setting": "[3]; UVEITIS, M", "result": 15.21},
      {"measurement": "S[…]", "setting": "[3]; control subjects", "result": "≤ 2"}
    ]},
    {"compound": "GEPPPGKPADDAGLV [Na2 BPC157, Disodium Salt of BPC157]", "values": [
      {"measurement": "assay (HPLC), 0 Days", "setting": "[1]; listed as disodium salt of BPC157", "result": 99.4, "unit": "area %"}
    ]}
  ]
}
